Here are results for 1 substance from patent publication US10287337B2 (priority 2015, dated 2019).

HELM strings list residues between dots; [ac] is acetyl, [am] amide, other brackets name non-standard units.

The data set is described as follows: general procedure: Fmoc solid-phase peptide synthesis; 4-(2',4'-dimethoxyphenyl-Fmoc-aminomethyl)-phenoxy resin; HBTU, DIEA. As to conditions: whole synthesis, scale 0.52 mmol.

In turn, “PEPTIDE1{N.F.V.P.T.N.V.G.P.F.A.F.[am]}$$$$V2.0” had a crude mass of 0.25 g and a crude yield of 41% yield.
